These are yes or no findings as the source states them, for the method shown. Binding seen in cells or lysates may run through a third protein. Binding calls can cover weak binding; strength is not graded here.
Target: Futsch, endogenous (Drosophila) (Drosophila (endogenous in brain)) (UniProt Q9W596)
Assay: co-IP; endogenous proteins, wild type Drosophila head/brain lysate, immunoprecipitated with anti-Futsch or anti-dPiT antibody, Dynabeads Protein G

By UniProt entry, the sequences of proteins in these tests, tags left out. Where a name states a change or a piece, a line headed by the entry shows the natural chain unless it says otherwise.
UniProt Q9W596: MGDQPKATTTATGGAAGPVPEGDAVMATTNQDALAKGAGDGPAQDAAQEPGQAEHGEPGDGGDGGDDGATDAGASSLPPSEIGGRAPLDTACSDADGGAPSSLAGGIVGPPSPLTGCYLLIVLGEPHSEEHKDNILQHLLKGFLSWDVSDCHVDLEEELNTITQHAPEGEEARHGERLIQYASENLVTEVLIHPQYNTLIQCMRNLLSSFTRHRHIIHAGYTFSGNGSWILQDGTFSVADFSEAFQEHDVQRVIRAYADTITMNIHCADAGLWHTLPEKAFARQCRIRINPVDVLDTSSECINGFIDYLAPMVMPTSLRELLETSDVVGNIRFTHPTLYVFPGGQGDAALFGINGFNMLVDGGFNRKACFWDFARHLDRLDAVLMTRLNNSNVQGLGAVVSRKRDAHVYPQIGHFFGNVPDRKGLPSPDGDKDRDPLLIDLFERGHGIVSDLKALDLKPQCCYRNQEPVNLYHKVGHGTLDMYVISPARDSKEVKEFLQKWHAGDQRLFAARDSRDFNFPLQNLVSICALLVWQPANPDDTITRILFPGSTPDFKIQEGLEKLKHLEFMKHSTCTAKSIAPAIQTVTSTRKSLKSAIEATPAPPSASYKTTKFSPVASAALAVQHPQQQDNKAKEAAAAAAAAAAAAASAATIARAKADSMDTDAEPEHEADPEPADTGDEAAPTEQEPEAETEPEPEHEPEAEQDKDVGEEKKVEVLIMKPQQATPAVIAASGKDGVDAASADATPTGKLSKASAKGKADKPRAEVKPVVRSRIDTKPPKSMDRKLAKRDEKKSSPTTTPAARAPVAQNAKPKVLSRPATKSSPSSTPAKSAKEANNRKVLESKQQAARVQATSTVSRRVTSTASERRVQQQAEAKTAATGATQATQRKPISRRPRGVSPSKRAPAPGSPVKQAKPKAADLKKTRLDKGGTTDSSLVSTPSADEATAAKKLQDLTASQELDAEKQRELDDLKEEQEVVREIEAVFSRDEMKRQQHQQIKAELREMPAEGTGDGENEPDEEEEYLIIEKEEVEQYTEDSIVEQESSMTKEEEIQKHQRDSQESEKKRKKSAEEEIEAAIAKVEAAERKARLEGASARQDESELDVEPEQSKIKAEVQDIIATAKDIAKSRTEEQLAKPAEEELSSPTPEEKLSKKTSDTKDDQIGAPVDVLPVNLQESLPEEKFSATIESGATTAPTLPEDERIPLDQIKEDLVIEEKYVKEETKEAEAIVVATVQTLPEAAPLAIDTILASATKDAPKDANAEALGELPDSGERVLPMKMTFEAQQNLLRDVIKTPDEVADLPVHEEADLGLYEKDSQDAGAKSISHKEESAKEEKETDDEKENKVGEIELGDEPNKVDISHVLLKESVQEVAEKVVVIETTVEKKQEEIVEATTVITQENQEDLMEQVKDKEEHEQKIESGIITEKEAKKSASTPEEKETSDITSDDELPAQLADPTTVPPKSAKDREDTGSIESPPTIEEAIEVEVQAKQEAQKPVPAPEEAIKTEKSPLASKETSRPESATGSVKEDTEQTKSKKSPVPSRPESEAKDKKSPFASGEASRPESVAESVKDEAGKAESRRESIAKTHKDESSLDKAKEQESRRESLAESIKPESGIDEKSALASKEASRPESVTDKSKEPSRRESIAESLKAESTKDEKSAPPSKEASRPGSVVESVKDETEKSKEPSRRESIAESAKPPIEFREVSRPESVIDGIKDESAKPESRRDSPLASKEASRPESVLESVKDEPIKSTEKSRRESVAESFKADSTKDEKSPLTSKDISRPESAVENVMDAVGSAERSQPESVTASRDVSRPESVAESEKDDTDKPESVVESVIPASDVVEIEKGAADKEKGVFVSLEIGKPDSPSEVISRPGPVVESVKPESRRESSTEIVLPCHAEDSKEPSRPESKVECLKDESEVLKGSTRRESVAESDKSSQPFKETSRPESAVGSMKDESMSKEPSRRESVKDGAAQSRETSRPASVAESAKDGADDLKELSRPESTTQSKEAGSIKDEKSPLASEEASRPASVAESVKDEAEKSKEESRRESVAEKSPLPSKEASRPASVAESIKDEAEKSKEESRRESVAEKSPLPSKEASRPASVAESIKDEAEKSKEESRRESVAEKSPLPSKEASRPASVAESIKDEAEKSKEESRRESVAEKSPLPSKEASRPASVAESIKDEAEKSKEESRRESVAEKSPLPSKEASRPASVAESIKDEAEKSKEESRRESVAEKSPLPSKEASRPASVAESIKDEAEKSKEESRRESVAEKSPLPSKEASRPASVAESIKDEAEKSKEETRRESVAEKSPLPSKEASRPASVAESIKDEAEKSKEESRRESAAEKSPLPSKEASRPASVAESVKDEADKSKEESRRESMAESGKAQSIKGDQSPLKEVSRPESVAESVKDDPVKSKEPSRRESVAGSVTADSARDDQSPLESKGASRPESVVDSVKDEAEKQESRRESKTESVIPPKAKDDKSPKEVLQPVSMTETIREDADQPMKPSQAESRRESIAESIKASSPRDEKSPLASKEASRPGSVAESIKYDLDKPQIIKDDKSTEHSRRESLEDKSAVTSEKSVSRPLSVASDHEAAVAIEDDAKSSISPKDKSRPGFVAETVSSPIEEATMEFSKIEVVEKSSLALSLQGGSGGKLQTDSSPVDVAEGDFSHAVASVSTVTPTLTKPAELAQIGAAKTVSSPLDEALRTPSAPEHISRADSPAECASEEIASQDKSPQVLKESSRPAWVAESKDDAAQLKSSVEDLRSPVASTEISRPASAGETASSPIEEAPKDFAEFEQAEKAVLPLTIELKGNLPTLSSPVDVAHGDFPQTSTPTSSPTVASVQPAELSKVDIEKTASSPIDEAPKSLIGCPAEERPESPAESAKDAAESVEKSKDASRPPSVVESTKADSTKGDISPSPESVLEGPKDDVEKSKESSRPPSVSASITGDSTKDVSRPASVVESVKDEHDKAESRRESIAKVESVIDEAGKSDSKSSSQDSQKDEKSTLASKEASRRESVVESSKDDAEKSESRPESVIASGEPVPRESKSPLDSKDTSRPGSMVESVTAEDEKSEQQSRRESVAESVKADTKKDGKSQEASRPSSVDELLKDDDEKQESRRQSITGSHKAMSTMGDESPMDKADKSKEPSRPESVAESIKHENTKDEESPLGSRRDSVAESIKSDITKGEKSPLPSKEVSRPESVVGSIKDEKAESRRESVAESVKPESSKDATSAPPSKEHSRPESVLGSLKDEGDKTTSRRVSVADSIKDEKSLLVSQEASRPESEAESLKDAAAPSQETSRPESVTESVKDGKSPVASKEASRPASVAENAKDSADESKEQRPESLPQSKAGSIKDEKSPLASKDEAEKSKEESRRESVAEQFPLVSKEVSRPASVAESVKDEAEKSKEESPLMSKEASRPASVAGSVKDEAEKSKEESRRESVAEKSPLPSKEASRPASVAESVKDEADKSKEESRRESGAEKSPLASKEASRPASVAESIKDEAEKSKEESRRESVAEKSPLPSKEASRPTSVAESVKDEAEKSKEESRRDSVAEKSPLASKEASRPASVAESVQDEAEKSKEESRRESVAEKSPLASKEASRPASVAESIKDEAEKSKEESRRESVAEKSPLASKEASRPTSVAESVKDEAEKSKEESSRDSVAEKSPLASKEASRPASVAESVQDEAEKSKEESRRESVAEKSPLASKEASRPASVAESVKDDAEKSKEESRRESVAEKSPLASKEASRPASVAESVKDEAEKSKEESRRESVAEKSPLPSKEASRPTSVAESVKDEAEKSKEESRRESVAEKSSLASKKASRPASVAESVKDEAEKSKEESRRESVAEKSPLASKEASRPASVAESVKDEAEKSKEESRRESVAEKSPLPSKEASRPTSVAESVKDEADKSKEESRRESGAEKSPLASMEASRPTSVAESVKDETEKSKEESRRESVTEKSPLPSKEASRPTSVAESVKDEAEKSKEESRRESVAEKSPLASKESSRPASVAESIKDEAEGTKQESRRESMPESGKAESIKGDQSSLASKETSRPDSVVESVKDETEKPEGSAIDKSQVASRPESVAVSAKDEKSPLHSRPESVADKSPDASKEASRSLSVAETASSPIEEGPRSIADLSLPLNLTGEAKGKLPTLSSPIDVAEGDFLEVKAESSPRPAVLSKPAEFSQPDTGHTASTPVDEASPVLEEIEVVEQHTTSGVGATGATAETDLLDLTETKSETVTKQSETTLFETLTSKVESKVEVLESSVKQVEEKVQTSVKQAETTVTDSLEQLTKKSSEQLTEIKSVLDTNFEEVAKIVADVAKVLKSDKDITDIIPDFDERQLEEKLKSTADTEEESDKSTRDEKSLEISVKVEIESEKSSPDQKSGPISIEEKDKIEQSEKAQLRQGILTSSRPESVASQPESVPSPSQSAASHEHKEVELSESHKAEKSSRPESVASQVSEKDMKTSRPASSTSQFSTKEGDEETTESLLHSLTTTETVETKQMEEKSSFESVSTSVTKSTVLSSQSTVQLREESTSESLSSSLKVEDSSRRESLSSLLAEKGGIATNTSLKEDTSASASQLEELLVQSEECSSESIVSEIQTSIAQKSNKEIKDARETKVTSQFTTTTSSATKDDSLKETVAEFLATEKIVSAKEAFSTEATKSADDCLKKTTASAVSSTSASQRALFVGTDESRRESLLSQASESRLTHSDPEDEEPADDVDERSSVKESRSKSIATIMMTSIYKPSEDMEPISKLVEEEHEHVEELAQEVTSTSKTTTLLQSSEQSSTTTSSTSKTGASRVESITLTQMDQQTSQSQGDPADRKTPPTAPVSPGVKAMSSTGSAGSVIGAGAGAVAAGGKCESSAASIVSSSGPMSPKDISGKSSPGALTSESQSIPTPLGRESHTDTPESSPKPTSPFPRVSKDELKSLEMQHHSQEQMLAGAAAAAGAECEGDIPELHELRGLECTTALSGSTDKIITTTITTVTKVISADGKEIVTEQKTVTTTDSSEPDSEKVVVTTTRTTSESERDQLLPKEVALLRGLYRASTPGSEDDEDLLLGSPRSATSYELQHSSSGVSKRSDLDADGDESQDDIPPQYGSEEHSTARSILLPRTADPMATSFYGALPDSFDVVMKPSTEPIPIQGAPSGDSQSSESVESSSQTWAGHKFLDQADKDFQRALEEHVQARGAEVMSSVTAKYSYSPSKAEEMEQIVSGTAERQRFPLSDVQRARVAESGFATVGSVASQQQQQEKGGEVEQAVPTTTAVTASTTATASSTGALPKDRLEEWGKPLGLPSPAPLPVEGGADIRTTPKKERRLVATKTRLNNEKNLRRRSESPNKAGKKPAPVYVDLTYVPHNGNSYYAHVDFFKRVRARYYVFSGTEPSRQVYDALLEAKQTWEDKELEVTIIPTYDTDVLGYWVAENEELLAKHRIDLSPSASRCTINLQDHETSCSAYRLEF
UniProt Q9VTG0: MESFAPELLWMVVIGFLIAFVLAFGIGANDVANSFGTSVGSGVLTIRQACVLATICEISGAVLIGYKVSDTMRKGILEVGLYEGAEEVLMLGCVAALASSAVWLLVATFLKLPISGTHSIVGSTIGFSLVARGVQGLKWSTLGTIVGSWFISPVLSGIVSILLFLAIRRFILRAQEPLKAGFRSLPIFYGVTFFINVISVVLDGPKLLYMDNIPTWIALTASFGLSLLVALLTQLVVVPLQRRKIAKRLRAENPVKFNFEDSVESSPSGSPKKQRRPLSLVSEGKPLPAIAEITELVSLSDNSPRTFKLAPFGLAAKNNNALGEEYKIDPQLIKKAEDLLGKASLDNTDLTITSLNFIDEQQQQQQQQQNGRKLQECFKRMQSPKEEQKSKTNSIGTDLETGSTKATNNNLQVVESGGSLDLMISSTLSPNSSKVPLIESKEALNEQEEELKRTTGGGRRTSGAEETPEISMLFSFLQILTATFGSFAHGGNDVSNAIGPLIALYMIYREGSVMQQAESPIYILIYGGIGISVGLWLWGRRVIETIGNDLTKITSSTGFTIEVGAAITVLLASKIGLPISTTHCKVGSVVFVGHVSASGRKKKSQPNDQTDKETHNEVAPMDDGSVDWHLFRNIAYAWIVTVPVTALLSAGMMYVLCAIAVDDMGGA

binding: binds
Substance: dPiT, endogenous (Drosophila) (from UniProt Q9VTG0)

— article PMC5736545
